This is one part of the list. The data scatter; read single values as rough.
Compound: ClCC(=O)N[C@@H]1CCCc2ccccc12
Experiment: log2 mean competition ratio of IA-DTB cysteine labelling (DMSO/compound) (log2 ratio); higher = stronger cysteine engagement by compound
Conditions: 50 µM; treatment time: 4 h; cell line lysate: HEK293T
Protocol: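 IA-DTB competitive cysteine chemoproteomics in HEK293T RIPA lysate. Lysates were treated with compound 29 or 30 at 50 or 200 µM for 4 h, then IA-DTB (500 µM, 1 h), trypsin-digested, NeutrAvidin-enriched and analysed by diaPASEF. Competition ratio = intensity DMSO / intensity compound (n=4 treated, n=64 DMSO); binding: mean log2 CR ≥ 1 and p ≤ 0.05 plus QC filters. Target is the cysteine site.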

The chains behind the UniProt entries cited, without tags or fusion partners. Where a name states a change or a piece, a line headed by the entry shows the natural chain unless it says otherwise. Residues count along the entry.
UniProt Q9UM47, whole entry, looked up: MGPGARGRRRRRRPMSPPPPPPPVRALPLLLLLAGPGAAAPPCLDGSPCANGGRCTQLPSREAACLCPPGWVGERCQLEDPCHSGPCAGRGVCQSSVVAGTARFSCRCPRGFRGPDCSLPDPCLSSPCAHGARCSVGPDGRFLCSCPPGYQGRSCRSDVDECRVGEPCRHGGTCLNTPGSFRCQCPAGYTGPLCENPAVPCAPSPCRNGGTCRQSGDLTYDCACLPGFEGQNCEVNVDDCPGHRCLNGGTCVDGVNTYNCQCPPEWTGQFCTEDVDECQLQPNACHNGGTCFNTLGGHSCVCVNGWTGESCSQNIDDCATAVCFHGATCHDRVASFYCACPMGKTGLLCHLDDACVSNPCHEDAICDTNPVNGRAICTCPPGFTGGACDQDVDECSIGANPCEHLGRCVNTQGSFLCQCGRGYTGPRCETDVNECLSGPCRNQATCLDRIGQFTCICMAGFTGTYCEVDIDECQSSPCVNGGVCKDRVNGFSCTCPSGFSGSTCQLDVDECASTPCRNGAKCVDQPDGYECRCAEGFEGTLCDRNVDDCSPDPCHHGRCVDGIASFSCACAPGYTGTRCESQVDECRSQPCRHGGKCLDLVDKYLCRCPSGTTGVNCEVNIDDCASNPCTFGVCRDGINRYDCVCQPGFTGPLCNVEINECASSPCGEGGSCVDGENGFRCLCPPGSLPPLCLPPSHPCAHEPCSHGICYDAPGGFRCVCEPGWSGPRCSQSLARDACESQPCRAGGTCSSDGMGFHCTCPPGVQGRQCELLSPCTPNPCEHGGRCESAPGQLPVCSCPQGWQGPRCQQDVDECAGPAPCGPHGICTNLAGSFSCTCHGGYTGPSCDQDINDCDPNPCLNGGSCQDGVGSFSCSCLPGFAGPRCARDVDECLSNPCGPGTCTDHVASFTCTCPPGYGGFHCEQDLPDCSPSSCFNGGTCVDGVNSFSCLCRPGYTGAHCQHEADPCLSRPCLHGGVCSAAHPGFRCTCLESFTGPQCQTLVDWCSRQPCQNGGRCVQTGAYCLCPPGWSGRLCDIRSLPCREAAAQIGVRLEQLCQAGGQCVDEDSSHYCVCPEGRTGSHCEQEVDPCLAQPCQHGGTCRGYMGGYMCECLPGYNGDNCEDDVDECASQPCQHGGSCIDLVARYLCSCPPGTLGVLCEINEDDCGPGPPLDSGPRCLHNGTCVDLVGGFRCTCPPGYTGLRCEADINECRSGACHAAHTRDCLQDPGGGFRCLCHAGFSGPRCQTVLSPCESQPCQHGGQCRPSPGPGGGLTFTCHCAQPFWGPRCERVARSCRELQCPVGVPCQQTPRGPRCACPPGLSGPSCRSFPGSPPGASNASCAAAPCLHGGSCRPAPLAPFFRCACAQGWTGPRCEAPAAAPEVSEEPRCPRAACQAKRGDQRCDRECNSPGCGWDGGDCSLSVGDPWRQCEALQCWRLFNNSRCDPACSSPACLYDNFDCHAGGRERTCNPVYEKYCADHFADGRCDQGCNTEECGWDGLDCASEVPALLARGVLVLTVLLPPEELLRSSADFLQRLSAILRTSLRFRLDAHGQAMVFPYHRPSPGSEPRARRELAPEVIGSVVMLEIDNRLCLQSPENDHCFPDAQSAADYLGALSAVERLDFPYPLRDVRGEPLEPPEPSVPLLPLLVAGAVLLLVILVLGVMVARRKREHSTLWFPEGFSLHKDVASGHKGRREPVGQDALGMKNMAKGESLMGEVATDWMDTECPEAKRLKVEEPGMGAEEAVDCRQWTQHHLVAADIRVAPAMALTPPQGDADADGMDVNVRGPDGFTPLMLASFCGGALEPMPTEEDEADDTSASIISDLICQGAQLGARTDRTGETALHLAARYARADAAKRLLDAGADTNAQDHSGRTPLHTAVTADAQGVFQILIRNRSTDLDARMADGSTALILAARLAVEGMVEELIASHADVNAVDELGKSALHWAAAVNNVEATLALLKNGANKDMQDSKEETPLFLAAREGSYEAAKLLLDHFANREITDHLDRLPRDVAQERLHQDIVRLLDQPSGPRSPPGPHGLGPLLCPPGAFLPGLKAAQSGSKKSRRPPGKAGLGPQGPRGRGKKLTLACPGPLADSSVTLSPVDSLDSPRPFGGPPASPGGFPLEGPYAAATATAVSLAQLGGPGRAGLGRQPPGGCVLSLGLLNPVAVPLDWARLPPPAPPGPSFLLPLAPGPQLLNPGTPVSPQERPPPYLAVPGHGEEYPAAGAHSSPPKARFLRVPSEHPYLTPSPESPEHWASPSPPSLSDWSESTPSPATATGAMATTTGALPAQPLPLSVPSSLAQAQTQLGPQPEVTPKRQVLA
UniProt Q9BW27: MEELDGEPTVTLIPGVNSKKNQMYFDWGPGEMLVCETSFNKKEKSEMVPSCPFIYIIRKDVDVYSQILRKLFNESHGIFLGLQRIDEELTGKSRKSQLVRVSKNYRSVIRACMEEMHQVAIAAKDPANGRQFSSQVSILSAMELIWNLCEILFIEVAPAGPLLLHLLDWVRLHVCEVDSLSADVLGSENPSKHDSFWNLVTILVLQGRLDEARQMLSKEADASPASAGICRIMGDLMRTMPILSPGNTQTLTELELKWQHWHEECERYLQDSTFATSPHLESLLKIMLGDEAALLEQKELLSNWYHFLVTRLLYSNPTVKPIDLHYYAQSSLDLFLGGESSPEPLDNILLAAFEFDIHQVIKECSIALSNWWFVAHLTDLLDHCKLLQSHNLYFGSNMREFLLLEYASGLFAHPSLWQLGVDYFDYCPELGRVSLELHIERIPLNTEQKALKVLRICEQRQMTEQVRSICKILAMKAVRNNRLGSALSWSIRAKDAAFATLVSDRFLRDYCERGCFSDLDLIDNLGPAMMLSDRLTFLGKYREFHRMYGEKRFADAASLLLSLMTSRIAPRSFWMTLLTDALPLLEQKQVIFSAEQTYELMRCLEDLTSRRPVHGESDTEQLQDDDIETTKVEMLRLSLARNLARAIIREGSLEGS
UniProt Q969R2: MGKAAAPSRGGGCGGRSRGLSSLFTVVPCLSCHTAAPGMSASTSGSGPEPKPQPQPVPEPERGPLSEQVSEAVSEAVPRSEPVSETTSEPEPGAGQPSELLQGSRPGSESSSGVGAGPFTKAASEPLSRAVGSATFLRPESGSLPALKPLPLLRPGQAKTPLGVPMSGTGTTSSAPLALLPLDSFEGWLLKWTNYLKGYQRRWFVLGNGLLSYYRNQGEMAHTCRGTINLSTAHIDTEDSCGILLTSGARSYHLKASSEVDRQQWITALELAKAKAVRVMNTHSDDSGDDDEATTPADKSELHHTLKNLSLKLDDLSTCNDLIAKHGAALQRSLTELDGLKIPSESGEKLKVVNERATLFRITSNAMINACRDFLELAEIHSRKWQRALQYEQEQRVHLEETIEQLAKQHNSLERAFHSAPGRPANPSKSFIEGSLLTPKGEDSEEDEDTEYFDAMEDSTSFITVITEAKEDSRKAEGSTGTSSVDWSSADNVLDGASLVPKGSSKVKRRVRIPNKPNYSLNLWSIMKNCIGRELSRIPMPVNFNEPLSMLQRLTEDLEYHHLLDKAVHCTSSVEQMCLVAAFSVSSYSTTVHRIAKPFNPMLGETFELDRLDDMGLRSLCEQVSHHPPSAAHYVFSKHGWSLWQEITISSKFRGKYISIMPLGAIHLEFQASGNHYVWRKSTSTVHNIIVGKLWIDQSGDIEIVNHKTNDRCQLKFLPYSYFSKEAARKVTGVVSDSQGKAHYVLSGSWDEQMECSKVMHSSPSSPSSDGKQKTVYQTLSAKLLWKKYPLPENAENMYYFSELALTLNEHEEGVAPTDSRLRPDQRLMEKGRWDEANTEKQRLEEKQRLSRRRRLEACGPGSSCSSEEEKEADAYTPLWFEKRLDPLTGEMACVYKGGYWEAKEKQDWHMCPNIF
UniProt P24468: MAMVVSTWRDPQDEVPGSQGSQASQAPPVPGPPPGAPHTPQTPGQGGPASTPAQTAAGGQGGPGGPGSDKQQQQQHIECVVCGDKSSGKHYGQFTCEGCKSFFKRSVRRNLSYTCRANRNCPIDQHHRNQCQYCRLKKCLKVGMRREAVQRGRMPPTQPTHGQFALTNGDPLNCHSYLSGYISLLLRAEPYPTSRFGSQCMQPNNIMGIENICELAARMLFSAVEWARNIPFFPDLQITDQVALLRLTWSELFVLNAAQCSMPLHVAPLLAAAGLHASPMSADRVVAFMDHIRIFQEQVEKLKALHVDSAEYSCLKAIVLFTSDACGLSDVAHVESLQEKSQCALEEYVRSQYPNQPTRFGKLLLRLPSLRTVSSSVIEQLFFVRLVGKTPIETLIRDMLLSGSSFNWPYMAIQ
UniProt Q92621: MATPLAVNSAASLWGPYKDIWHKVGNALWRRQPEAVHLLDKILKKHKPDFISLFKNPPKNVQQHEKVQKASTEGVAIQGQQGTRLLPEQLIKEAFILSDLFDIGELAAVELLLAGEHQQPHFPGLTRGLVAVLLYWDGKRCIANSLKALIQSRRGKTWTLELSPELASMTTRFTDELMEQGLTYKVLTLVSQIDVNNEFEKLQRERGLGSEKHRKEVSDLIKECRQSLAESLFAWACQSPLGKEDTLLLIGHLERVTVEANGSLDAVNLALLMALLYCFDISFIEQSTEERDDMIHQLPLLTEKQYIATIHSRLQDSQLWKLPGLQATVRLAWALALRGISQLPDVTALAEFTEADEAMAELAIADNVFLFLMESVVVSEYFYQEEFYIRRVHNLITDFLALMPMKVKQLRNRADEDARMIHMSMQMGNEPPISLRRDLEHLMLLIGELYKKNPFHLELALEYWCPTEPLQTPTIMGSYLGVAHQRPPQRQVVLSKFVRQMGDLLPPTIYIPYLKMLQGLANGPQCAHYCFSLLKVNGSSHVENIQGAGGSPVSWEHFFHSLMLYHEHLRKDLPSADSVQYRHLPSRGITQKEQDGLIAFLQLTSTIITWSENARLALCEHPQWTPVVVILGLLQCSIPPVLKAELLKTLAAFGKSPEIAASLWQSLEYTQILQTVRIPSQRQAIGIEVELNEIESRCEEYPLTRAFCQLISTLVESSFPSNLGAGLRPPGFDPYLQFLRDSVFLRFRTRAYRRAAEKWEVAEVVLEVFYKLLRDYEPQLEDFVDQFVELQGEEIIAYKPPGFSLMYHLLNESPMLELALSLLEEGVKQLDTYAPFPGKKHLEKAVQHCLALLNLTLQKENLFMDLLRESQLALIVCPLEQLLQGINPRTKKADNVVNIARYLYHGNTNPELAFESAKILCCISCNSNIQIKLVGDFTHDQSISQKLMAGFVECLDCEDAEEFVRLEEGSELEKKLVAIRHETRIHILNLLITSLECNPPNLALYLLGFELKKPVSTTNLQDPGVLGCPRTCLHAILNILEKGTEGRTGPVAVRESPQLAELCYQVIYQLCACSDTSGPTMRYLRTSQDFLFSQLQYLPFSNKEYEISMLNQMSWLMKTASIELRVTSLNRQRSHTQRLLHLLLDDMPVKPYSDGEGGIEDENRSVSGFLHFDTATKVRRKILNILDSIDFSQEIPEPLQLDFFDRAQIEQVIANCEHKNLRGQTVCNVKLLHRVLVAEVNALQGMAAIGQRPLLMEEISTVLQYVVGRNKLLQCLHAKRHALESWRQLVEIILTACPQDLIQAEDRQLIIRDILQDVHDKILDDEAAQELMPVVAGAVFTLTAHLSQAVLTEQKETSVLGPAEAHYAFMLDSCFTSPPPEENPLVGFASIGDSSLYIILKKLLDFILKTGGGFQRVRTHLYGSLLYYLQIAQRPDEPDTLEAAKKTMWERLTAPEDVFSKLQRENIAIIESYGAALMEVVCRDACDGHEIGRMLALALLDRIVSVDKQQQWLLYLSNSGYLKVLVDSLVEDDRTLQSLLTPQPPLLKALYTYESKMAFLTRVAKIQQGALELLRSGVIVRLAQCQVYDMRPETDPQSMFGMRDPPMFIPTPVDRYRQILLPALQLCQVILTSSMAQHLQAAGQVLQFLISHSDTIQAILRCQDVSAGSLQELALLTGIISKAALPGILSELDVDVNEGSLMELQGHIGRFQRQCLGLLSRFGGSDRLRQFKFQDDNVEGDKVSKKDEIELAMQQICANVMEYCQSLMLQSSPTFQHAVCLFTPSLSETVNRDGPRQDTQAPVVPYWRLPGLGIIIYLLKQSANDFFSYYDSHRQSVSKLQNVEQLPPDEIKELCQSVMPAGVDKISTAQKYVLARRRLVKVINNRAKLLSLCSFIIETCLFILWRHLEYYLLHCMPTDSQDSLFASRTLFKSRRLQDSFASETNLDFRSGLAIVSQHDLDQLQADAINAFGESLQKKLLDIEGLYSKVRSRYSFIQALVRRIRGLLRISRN
UniProt P10588, 307-330: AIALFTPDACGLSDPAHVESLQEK
UniProt Q96DC9: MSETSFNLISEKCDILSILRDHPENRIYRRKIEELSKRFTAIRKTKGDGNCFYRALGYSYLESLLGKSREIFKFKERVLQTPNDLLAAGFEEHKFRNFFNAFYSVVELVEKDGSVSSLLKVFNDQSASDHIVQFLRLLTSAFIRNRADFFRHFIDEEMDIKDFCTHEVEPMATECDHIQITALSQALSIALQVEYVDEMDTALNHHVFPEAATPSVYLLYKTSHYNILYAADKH

Target | log2 mean competition ratio
NOTCH3 C1222 (UniProt Q9UM47) | -0.13
ODAD2 C125 | -0.251
NRDE2 C608 (UniProt Q9H7Z3) | -0.00749
NUP85 C230 (UniProt Q9BW27) | -0.0841
NSUN6 C242 (UniProt Q8TEA1) | -0.11
NUS1 C287 (UniProt Q96E22) | -0.0171
NT5DC3 C276 (UniProt Q86UY8) | 0.0647
NPLOC4 C130 | -0.0771
OSBP2 C319 (UniProt Q969R2) | -0.164
NR2F2 C314 (UniProt P24468) | 0.0478
NSD3 C495 (UniProt Q9BZ95) | 0.084
NUP205 C1028 (UniProt Q92621) | 0.182
NR2F6 C316 (UniProt P10588) | 0.293
NUDT6 C44 (UniProt P53370) | -0.326
NUP153 C1065 (UniProt P49790) | 0.0196
OTUB2 C13 (UniProt Q96DC9) | -0.269
NR3C2 C308 | 0.18
OSBPL2 C122 (UniProt Q9H1P3) | 0.36
NUP98 C1735 (UniProt P52948) | 0.25
NUP85 C265 (UniProt Q9BW27) | 0.122

Same assay, conditions: 200 µM; treatment time: 4 h; cell line lysate: HEK293T

Target | log2 mean competition ratio
NOTCH3 C1222 (UniProt Q9UM47) | 0.0741
ODAD2 C125 | 0.115
NRDE2 C608 (UniProt Q9H7Z3) | 0.302
NUP85 C230 (UniProt Q9BW27) | 0.296
NSUN6 C242 (UniProt Q8TEA1) | 0.086
NUS1 C287 (UniProt Q96E22) | 0.393
NT5DC3 C276 (UniProt Q86UY8) | -0.235
NPLOC4 C130 | 0.39
OSBP2 C319 (UniProt Q969R2) | 0.0852
NR2F2 C314 (UniProt P24468) | 0.13
NSD3 C495 (UniProt Q9BZ95) | -0.198
NUP205 C1028 (UniProt Q92621) | 0.324
NR2F6 C316 (UniProt P10588) | 0.24
NUDT6 C44 (UniProt P53370) | 0.136
NUP153 C1065 (UniProt P49790) | -0.235
OTUB2 C13 (UniProt Q96DC9) | -0.302
NR3C2 C308 | 0.0765
OSBPL2 C122 (UniProt Q9H1P3) | -0.0699
NUP98 C1735 (UniProt P52948) | -0.12
NUP85 C265 (UniProt Q9BW27) | -0.109

— the supplement of paper PMC11732987, “Enantioselective OTUD7B fragment discovery through chemoproteomics screening and high-throughput optimisation” (Communications Chemistry, 2025)
